Data: paper PMC12891473

The chains behind the UniProt entries cited, without tags or fusion partners. Where a name states a change or a piece, a line headed by the entry shows the natural chain unless it says otherwise.
UniProt A0A509AMD3: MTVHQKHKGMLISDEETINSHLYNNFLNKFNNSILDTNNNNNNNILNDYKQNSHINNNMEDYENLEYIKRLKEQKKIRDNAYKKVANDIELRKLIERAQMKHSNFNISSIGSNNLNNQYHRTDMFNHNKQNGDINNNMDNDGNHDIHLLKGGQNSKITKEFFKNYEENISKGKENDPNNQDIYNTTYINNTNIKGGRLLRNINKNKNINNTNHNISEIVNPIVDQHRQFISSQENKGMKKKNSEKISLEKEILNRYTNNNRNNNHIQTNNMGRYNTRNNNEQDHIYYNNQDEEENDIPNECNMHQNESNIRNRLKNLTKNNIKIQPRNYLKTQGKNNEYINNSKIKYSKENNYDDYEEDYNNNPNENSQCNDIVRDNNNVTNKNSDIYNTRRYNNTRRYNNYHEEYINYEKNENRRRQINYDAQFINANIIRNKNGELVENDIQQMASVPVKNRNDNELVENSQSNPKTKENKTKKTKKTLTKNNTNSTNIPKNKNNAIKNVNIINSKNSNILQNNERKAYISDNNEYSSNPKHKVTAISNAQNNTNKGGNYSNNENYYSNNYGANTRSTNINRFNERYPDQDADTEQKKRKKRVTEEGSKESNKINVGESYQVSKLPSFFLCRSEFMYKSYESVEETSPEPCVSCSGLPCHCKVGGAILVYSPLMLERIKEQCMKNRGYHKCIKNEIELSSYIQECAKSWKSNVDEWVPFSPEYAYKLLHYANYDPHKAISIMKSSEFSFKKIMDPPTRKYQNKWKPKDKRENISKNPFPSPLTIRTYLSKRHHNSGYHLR
UniProt A0A509AIT3: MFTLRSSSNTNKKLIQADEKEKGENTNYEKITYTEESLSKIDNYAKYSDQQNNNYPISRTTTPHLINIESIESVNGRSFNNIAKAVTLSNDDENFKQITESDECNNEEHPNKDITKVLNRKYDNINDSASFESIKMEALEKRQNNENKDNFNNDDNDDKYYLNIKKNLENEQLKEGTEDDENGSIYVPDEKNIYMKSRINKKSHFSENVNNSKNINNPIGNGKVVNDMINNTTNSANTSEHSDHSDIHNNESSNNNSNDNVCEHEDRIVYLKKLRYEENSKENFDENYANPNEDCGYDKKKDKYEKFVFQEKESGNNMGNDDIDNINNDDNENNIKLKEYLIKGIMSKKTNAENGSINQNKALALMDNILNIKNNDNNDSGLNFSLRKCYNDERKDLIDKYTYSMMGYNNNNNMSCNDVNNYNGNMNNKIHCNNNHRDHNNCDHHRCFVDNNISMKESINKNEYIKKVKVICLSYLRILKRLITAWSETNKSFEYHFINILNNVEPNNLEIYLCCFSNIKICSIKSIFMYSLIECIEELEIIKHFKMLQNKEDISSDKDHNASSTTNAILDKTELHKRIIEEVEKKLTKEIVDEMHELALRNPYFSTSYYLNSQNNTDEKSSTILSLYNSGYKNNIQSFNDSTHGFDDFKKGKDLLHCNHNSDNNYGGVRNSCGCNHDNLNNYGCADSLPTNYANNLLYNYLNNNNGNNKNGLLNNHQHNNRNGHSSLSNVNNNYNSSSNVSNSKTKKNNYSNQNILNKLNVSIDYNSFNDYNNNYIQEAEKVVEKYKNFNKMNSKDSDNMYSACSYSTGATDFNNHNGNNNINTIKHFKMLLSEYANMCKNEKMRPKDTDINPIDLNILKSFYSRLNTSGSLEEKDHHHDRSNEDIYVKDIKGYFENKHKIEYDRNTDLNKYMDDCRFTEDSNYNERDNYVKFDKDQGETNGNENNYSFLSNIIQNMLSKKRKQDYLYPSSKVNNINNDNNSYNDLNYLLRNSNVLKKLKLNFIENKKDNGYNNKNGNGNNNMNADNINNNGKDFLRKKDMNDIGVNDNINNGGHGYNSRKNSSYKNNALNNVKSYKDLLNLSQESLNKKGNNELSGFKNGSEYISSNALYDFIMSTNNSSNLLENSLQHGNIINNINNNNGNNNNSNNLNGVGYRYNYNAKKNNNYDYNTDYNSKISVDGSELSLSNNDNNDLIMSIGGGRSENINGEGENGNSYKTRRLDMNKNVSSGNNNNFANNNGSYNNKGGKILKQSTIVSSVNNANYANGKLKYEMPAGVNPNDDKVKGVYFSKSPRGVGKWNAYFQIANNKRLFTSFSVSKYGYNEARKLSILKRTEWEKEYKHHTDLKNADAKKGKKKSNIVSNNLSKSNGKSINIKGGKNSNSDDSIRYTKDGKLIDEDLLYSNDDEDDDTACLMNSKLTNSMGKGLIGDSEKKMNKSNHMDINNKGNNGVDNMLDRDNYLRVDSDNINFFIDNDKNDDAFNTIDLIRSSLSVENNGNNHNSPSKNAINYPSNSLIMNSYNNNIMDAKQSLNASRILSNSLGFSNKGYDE
UniProt A0A509AM22: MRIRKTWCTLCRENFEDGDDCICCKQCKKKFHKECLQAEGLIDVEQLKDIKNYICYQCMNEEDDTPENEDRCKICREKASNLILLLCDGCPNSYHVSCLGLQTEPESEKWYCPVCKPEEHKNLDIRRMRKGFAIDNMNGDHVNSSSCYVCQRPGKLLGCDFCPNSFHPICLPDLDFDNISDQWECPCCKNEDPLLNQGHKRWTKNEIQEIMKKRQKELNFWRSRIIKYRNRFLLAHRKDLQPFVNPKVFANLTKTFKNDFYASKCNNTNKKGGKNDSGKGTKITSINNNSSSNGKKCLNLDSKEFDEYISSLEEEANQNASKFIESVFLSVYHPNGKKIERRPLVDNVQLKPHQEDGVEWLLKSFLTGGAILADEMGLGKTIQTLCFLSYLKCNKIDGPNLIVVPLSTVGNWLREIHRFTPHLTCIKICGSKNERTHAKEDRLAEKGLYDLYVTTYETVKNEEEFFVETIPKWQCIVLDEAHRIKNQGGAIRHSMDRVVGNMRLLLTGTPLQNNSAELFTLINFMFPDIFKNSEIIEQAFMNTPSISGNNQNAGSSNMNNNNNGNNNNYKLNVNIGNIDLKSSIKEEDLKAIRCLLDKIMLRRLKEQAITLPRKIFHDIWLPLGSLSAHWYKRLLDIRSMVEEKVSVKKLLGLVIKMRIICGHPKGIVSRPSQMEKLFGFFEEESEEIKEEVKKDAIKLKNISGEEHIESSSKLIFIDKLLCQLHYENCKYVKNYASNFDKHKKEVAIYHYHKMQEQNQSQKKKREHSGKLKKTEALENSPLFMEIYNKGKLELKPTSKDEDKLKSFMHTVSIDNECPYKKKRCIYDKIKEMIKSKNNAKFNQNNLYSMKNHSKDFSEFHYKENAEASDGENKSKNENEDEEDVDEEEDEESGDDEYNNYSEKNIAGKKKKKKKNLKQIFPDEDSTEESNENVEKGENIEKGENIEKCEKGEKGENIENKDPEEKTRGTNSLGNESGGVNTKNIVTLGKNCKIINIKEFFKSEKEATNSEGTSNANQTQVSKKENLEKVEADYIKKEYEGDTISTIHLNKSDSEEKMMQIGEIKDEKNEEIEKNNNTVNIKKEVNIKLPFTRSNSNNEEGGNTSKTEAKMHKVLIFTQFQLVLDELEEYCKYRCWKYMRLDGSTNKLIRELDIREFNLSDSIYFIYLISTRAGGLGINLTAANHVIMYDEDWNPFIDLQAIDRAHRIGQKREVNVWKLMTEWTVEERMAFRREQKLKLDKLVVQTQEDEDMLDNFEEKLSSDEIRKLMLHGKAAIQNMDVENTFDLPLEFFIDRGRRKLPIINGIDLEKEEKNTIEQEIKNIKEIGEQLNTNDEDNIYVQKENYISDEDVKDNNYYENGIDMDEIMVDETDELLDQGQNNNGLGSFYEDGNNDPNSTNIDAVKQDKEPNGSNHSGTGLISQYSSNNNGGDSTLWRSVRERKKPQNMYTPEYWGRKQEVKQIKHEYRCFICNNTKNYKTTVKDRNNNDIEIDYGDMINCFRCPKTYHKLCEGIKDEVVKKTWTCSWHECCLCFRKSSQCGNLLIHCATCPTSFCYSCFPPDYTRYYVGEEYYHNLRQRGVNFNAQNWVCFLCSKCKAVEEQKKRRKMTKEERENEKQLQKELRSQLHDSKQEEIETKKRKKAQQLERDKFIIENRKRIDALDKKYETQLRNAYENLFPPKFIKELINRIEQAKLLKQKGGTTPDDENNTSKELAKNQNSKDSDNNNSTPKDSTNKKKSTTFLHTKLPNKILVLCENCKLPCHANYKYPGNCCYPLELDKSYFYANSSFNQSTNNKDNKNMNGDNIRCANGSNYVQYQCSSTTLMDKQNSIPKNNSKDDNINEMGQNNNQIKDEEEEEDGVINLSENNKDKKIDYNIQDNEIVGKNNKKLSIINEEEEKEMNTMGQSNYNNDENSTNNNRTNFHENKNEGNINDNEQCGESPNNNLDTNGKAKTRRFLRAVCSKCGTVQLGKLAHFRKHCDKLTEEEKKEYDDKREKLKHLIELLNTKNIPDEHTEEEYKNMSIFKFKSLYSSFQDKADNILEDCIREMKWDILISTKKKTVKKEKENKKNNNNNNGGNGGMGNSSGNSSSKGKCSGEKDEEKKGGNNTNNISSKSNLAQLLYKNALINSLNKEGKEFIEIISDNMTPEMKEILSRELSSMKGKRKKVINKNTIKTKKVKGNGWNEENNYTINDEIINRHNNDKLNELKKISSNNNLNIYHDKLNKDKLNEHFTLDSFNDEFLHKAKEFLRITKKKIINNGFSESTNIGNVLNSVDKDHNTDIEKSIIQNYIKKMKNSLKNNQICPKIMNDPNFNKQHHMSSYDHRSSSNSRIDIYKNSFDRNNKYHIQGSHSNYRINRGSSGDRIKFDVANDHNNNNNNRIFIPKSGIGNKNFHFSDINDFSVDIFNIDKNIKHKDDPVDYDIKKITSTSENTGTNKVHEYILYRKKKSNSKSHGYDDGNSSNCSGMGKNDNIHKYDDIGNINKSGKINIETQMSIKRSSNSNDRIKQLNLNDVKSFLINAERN

Biological target: GFP-fused PbAP2-TR (PbAP2-TR::GFP) (P. berghei)
Assay: affinity purification with mass spectrometry; RIME: ChIP with anti-GFP polyclonal antibodies on Protein A magnetic beads from 1% formalin-fixed, sonicated PbAP2-TR::GFP^pbap2-g(-) parasites at 12 hpi, WT parasites as control; low-salt and high-salt washes; on-bead trypsin digestion, LC-MS/MS; four biologically independent experiments

Substance: EELM2 (from UniProt A0A509AMD3)
- binding: binds

Substance: PbAP2-P (from UniProt A0A509AIT3)
- binding: no binding

Substance: PBANKA_0521700 (from UniProt A0A509AF70 1-2775)
- binding: no binding

Substance: ISWI (from UniProt A0A509AM22)
- binding: binds

No constants are given. Whether binding was seen depends on the method and setting. Binding seen in cells or lysates may run through a third protein. These calls come from enrichment with a bait or labelling near it, and not all partners need be listed. A no says only that the protein was not detected with the bait.
